{"source": "the supplement of paper PMC10077471", "note": "In all, about 1,900 compounds were measured (“excess over highest single agent (ExcessHSA) synergy score, 6x6 matrix”: median about -83, lowest 2% from about -370 on). Some of the results follow."}
{"tested_on": "NCI-H446", "experiment": "excess over highest single agent (ExcessHSA) synergy score, 6x6 matrix; higher = less synergy (more negative = stronger synergy)", "settings": "72 h; CellTiter-Glo viability"}
{"smiles": "CCCCCC[C@H]1C(=O)O[C@H](C)[C@H](NC(=O)c2cccc(NC=O)c2O)C(=O)O[C@@H](C)[C@@H]1OC(=O)CC(C)C", "note": "+ Cc1sc2c(c1C)C(c1ccc(Cl)cc1)=N[C@@H](CC(=O)OC(C)(C)C)c1nnc(C)n1-2 [NCGC00250412-19]", "excess over highest single agent": -39}
{"smiles": "C[C@H]1[C@@H](CC(C[C@H]2O[C@@H]3O[C@]4(C)CC[C@H]5[C@H](C)CC[C@@H]([C@H]2C)[C@@]35OO4)CS(=O)(=O)c2ccc(COC(=O)N(C)C)cc2)O[C@@H]2O[C@]3(C)CC[C@H]4[C@H](C)CC[C@@H]1[C@@]24OO3", "note": "(stereo partly drawn) + Cc1sc2c(c1C)C(c1ccc(Cl)cc1)=N[C@@H](CC(=O)OC(C)(C)C)c1nnc(C)n1-2 [NCGC00250412-19]", "excess over highest single agent": -299}
{"smiles": "CO[C@H]1C(=O)[C@]2(C)[C@@H](OC)C[C@H]3OC[C@@]3(OC(C)=O)[C@H]2[C@H](OC(=O)c2ccccc2)[C@]2(O)C[C@H](OC(=O)[C@H](O)[C@@H](NC(=O)OC(C)(C)C)c3ccccc3)C(C)=C1C2(C)C", "note": "+ Cc1sc2c(c1C)C(c1ccc(Cl)cc1)=N[C@@H](CC(=O)OC(C)(C)C)c1nnc(C)n1-2 [NCGC00250412-19]", "excess over highest single agent": -412}
{"smiles": "Cc1ccc(CN2CCNCC2)cc1NC(=O)CNc1ccc(F)c(F)c1", "note": "+ Cc1sc2c(c1C)C(c1ccc(Cl)cc1)=N[C@@H](CC(=O)OC(C)(C)C)c1nnc(C)n1-2 [NCGC00250412-19]", "excess over highest single agent": -10.7}
{"smiles": "O=S(=O)(O)CCSSCCS(=O)(=O)O", "note": "+ Cc1sc2c(c1C)C(c1ccc(Cl)cc1)=N[C@@H](CC(=O)OC(C)(C)C)c1nnc(C)n1-2 [NCGC00250412-19]", "excess over highest single agent": -56.3}
{"smiles": "Clc1ccccc1C(c1ccccc1)(c1ccccc1)n1ccnc1", "note": "+ Cc1sc2c(c1C)C(c1ccc(Cl)cc1)=N[C@@H](CC(=O)OC(C)(C)C)c1nnc(C)n1-2 [NCGC00250412-19]", "excess over highest single agent": -102}
{"smiles": "NC(=O)NO", "note": "+ Cc1sc2c(c1C)C(c1ccc(Cl)cc1)=N[C@@H](CC(=O)OC(C)(C)C)c1nnc(C)n1-2 [NCGC00250412-19]", "excess over highest single agent": -18.6}
{"smiles": "C[C@]12CC[C@@H]3c4ccc(O)cc4CC[C@H]3[C@@H]1[C@@H](O)[C@@H](O)[C@@H]2O", "note": "+ Cc1sc2c(c1C)C(c1ccc(Cl)cc1)=N[C@@H](CC(=O)OC(C)(C)C)c1nnc(C)n1-2 [NCGC00250412-19]", "excess over highest single agent": -91}
{"smiles": "Clc1ccc(COC(Cn2ccnc2)c2ccc(Cl)cc2Cl)cc1", "note": "(stereo not drawn) + Cc1sc2c(c1C)C(c1ccc(Cl)cc1)=N[C@@H](CC(=O)OC(C)(C)C)c1nnc(C)n1-2 [NCGC00250412-19]", "excess over highest single agent": 81.4}
{"smiles": "CCc1cc(/C(C)=N/OCc2ccc(C3CCCCC3)c(C(F)(F)F)c2)ccc1CN1CC(C(=O)O)C1", "note": "+ Cc1sc2c(c1C)C(c1ccc(Cl)cc1)=N[C@@H](CC(=O)OC(C)(C)C)c1nnc(C)n1-2 [NCGC00250412-19]", "excess over highest single agent": -115}
{"smiles": "C[C@@H]1CC[C@@]2(OC1)OC1CC3C4CC=C5CC(O)CCC5(C)C4CCC3(C)C1[C@@H]2C", "note": "(stereo partly drawn) + Cc1sc2c(c1C)C(c1ccc(Cl)cc1)=N[C@@H](CC(=O)OC(C)(C)C)c1nnc(C)n1-2 [NCGC00250412-19]", "excess over highest single agent": -38}
{"smiles": "Cc1cc(CS(=O)(=O)c2ccccc2)cc(OCc2ccc(CN3CCC[C@@H]3CO)cc2)c1", "note": "+ Cc1sc2c(c1C)C(c1ccc(Cl)cc1)=N[C@@H](CC(=O)OC(C)(C)C)c1nnc(C)n1-2 [NCGC00250412-19]", "excess over highest single agent": -3.45}
{"smiles": "CCn1c(-c2nonc2N)nc2cnc(Oc3cccc(NC(=O)c4ccc(OCCN5CCOCC5)cc4)c3)cc21", "note": "+ Cc1sc2c(c1C)C(c1ccc(Cl)cc1)=N[C@@H](CC(=O)OC(C)(C)C)c1nnc(C)n1-2 [NCGC00250412-19]", "excess over highest single agent": -134}
{"smiles": "COc1cc2c(cc1OC)CN(CCc1ccc(NC(=O)c3cccc4c(=O)c5cccc(OC)c5[nH]c34)cc1)CC2", "note": "+ Cc1sc2c(c1C)C(c1ccc(Cl)cc1)=N[C@@H](CC(=O)OC(C)(C)C)c1nnc(C)n1-2 [NCGC00250412-19]", "excess over highest single agent": 86.7}
{"smiles": "O=P(O)(O)C(O)(Cc1cccnc1)P(=O)(O)O", "note": "+ Cc1sc2c(c1C)C(c1ccc(Cl)cc1)=N[C@@H](CC(=O)OC(C)(C)C)c1nnc(C)n1-2 [NCGC00250412-19]", "excess over highest single agent": -14.6}
{"smiles": "CC(=O)O[C@@]12CO[C@@H]1C[C@H](O)[C@@]1(C)C(=O)[C@H](O)C3=C(C)[C@@H](O)C[C@@](O)([C@@H](OC(=O)c4ccccc4)[C@H]21)C3(C)C", "note": "+ Cc1sc2c(c1C)C(c1ccc(Cl)cc1)=N[C@@H](CC(=O)OC(C)(C)C)c1nnc(C)n1-2 [NCGC00250412-19]", "excess over highest single agent": -157}
{"smiles": "Cc1c(O)cccc1C(=O)N[C@@H](CSc1ccccc1)[C@H](O)CN1C[C@H]2CCCC[C@H]2C[C@H]1C(=O)NC(C)(C)C", "note": "+ Cc1sc2c(c1C)C(c1ccc(Cl)cc1)=N[C@@H](CC(=O)OC(C)(C)C)c1nnc(C)n1-2 [NCGC00250412-19]", "excess over highest single agent": -25.1}
{"smiles": "Cc1nc(-c2ccc(-c3ccc(C(=O)N4CCc5cc6c(cc54)C4(CCN(C)CC4)CO6)cc3)c(C)c2)no1", "note": "+ Cc1sc2c(c1C)C(c1ccc(Cl)cc1)=N[C@@H](CC(=O)OC(C)(C)C)c1nnc(C)n1-2 [NCGC00250412-19]", "excess over highest single agent": -231}
{"smiles": "Cc1cccc(Nc2nc(-c3ccncc3)cs2)c1", "note": "+ Cc1sc2c(c1C)C(c1ccc(Cl)cc1)=N[C@@H](CC(=O)OC(C)(C)C)c1nnc(C)n1-2 [NCGC00250412-19]", "excess over highest single agent": -277}
{"smiles": "Nc1ccn([C@@H]2O[C@H](CO)[C@@H](O)[C@H]2O)c(=O)n1", "note": "+ Cc1sc2c(c1C)C(c1ccc(Cl)cc1)=N[C@@H](CC(=O)OC(C)(C)C)c1nnc(C)n1-2 [NCGC00250412-19]", "excess over highest single agent": -268}
{"smiles": "CC1CCN(c2cc(N3CCN(C)CC3)ccc2NC(=O)c2cc(C#N)c[nH]2)CC1", "note": "+ Cc1sc2c(c1C)C(c1ccc(Cl)cc1)=N[C@@H](CC(=O)OC(C)(C)C)c1nnc(C)n1-2 [NCGC00250412-19]", "excess over highest single agent": 106}
{"smiles": "CN(C)CCN1C(=O)c2cccc3cc(N)cc(c23)C1=O", "note": "+ Cc1sc2c(c1C)C(c1ccc(Cl)cc1)=N[C@@H](CC(=O)OC(C)(C)C)c1nnc(C)n1-2 [NCGC00250412-19]", "excess over highest single agent": -103}
{"smiles": "CCOc1ccc(Cc2cc([C@@H]3O[C@H](CO)[C@@H](O)[C@H](O)[C@H]3O)ccc2Cl)cc1", "note": "+ Cc1sc2c(c1C)C(c1ccc(Cl)cc1)=N[C@@H](CC(=O)OC(C)(C)C)c1nnc(C)n1-2 [NCGC00250412-19]", "excess over highest single agent": -1.43}
